Source: publication PMC4521584
Substitutions are numbered along the chain they refer to. Construct, isoform or probe ends are uncertain for at least one entry. For some of these results: A weaker result is weaker than the reference pair of the same experiment. For some of these results: At least one verdict rests on a figure or table, not on a statement of the authors. For some of these results: Protein sequences can lack the tags named with them.

Sequences of proteins named here, by UniProt entry; tags and fusion partners are left off. A change or cut given only in a name is not applied to a line headed by its entry.
UniProt P23909: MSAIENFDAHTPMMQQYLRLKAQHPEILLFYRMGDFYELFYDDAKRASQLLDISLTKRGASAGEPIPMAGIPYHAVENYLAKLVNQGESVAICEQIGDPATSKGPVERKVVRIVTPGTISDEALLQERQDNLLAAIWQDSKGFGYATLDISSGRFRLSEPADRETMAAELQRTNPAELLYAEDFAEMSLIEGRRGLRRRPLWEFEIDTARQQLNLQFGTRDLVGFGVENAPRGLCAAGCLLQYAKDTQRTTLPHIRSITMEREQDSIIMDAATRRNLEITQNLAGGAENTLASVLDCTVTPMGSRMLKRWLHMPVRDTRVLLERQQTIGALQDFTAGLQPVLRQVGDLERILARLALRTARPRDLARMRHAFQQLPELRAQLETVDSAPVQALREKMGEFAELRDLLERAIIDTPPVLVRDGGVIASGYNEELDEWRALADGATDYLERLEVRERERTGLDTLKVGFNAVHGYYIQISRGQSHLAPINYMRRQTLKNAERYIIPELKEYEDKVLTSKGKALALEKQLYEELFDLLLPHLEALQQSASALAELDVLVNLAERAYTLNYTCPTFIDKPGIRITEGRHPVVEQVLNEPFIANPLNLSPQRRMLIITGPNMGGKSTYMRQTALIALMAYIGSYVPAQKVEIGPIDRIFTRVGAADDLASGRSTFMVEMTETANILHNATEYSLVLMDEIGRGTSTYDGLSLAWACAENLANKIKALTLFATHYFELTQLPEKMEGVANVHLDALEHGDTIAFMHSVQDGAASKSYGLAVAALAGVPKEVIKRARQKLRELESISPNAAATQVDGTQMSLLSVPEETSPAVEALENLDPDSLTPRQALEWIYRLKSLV

How the values were obtained:
[1] = system: MutS P595A/I597A/M759D + MutL WT; assay: SPR; settings: 1 mM ATP, end-blocked, reduced MutS/MutL complex formation; SPR: 25 mM Hepes pH 7.5, 150 mM KCl, 5 mM MgCl2, 1 mM DTT, 0.05% Tween-20, 1 mM ATP (+20% glycerol for MutL-MutS assay); recombinant protein; protein details: His6
[2] = molecular target: MutS D835R 449C-AF594 (UniProt P23909); assay: FRET (SYTOX Blue DNA to protein); settings: with and without 1 mM ATP, DNA moves away from 449; FRET: 25 mM Hepes pH 7.2, 150 mM KCl, 5 mM MgCl2; recombinant protein; residues 1-853; protein details: His, Alexa Fluor 594
[3] = molecular target: MutS D835R A336C-AF594 (UniProt P23909); assay: FRET (SYTOX Blue DNA to protein); settings: with and without 1 mM ATP, DNA approaches 336; FRET: 25 mM Hepes pH 7.2, 150 mM KCl, 5 mM MgCl2; recombinant protein; residues 1-853; protein details: His, Alexa Fluor 594
[4] = molecular target: T1, MutL R266E (full length) (UniProt P23367); assay: fluorescence polarization; settings: 50 mM KCl, 10% glycerol, effect most pronounced in full-length context; FP: same but 50 mM KCl, no ATP (+10% glycerol for full-length MutL); recombinant …; residues 1-615; protein details: His; label: 5' TAMRA
T1 sequence (looked up): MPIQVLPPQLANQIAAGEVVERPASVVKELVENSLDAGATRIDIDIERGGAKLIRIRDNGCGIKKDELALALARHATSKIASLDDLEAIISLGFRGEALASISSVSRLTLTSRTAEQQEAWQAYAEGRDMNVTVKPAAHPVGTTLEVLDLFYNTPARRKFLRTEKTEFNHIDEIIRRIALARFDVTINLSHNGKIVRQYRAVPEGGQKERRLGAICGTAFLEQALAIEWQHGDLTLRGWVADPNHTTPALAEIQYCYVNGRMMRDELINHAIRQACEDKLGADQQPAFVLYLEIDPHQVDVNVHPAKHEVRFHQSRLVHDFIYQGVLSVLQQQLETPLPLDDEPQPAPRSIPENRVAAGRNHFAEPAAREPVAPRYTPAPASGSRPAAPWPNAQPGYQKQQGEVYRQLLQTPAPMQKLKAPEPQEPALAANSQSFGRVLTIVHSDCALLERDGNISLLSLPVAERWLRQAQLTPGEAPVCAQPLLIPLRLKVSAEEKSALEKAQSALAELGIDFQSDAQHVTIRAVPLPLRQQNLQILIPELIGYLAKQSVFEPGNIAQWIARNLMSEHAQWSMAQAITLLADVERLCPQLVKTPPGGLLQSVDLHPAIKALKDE

[5] = molecular target: T2, MutL WT (UniProt P23367); assay: fluorescence polarization; settings: 50 mM KCl, 10% glycerol; FP: same but 50 mM KCl, no ATP (+10% glycerol for full-length MutL); recombinant protein; residues 1-615; protein details: His6; label: 5' TAMRA
T2 sequence (looked up): T1 sequence (looked up) with E266R

[6] = molecular target: T3, MutLLN40 N131C (UniProt P23367); assay: fluorescence polarization; settings: 50 mM KCl; FP: same but 50 mM KCl, no ATP (+10% glycerol for full-length MutL); recombinant protein; protein details: His; label: 5' TAMRA
T3 sequence (looked up, limits assumed): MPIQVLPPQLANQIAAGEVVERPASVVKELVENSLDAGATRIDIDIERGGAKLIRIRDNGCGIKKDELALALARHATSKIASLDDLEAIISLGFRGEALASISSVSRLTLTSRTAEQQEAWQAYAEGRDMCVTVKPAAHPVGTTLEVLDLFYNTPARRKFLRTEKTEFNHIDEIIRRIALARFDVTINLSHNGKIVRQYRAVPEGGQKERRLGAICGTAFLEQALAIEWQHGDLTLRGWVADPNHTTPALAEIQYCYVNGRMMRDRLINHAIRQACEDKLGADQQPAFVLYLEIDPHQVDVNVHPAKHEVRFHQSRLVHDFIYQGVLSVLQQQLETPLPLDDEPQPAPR

[7] = molecular target: T4, MutLLN40 N131C R266E (UniProt P23367); assay: fluorescence polarization; settings: 50 mM KCl; FP: same but 50 mM KCl, no ATP (+10% glycerol for full-length MutL); recombinant protein; protein details: His; label: 5' TAMRA
T4 sequence (looked up, limits assumed): T3 sequence (looked up, limits assumed) with R266E

Sequence: AAACAGGCTTAGGCTGGAGCTGAAGCTTAGCTTAGGATCATCGAGGATCGAGCTCGGTGCAATTCAGCGGTACCCAATTCGCCCTATAGGCATCCAGGTT / AACCTGGATGCCTATAGGGCGAATTGGGTACCGCTGAATTGCACCGAGCTTGATCCTCGATGATCCTAAGCTAAGCTTCAGCTCCAGCCTAAGCCTGTTT [100-bp G:T mismatch DNA]
- binding result [1]: binds more weakly

Sequence: AATTGCACCGAGCTTGATCCTCGATGATCC / GGATCATCGAGGATCGAGCTCGGTGCAATT [GT30, end-blocked]
- binding result [2]: binds
- binding result [3]: binds

Sequence: ATAGGACGCTGACACTGGTGCTTGGCAGCTTCTAATTCGAT (double strand) [41-bp homoduplex, TAMRA]
- binding result [4]: binds more weakly
- binding result [5]: binds
- binding result [6]: binds
- binding result [7]: binds more weakly
